Measured values: PMC3062566
Results are given in words; binding and its absence hold for the method and conditions named. Binding seen in cells or lysates may run through a third protein. Some results given as binding are weak or reduced against the parent protein; the word gives no strength.

Chains of the proteins cited; added tags and fusions are not shown. Lines headed by an entry give the natural chain unless they say otherwise; changes in a name come on top.
UniProt P9WHP5, whole entry, stated change not applied: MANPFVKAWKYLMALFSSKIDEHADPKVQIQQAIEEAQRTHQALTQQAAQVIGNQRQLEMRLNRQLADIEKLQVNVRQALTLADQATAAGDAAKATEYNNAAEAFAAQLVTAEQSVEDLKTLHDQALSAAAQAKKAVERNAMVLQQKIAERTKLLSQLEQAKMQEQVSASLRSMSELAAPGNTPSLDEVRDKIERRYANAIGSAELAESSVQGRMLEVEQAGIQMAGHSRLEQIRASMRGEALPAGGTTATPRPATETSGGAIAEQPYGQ

B1: M. tuberculosis PepD, wild type (expressed in M. smegmatis ΔpepD) (enzyme, UniProt O53896 1-464)
chain: MAKLARVVGLVQEEQPSDMTNHPRYSPPPQQPGTPGYAQGQQQTYSQQFDWRYPPSPPPQPTQYRQPYEALGGTRPGLIPGVIPTMTPPPGMVRQRPRAGMLAIGAVTIAVVSAGIGGAAASLVGFNRAPAGPSGGPVAASAAPSIPAANMPPGSVEQVAAKVVPSVVMLETDLGRQSEEGSGIILSAEGLILTNNHVIAAAAKPPLGSPPPKTTVTFSDGRTAPFTVVGADPTSDIAVVRVQGVSGLTPISLGSSSDLRVGQPVLAIGSPLGLEGTVTTGIVSALNRPVSTTGEAGNQNTVLDAIQTDAAINPGNSGGALVNMNAQLVGVNSAIATLGADSADAQSGSIGLGFAIPVDQAKRIADELISTGKASHASLGVQVTNDKDTLGAKIVEVVAGGAAANAGVPKGVVVTKVDDRPINSADALVAAVRSKAPGATVALTFQDPSGGSRTVQVTLGKAEQ

Biological target: 3xFLAG-Rv2744c-6xHis (expressed in M. smegmatis ΔpepD from pTZ1175) (Mycobacterium tuberculosis) (UniProt P9WHP5)
Assay: co-IP

| Molecule | binding |
| --- | --- |
| M. tuberculosis PepDS317A (untagged, expressed in M. smegmatis ΔpepD) (from UniProt O53896 1-464) (enzyme) | binds |
| MSMEG_2695 (35-kDa antigen of M. smegmatis) (from UniProt A0QVU2 1-279) | binds |
| B1 | binds |
